Reference: PubChem BioAssay AID504784 (Drosophila RNAi Screening Center, 2011)

Test: 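Search for regulators of lipid droplet storage in oleate-fed fly cells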 (primary screen)
System: Drosophila Kc167 embryonic cells
Reagent: long dsRNA against Drosophila genes, about 250 ng dsRNA per well
Time to read-out: 4 days
Challenge: cells fed 400 µM oleic acid bound to BSA
Read-out: 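Microscope images give a droplet-to-nucleus area ratio, taken as log and converted to a screen-wide B-score; higher values mean greater lipid storage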
Scale: droplet/nuclear area B-score: higher = more stored lipid (overstorage)
The screen tested about 17,000 reagents; this is a random part of those with a known target gene and a result. 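Each column is one replicate's B-score; the combined score over replicates was not deposited, so single values may mislead.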 Reagents against one gene are numbered here.

With knock-down of CG14106 (GeneID 39506), the record shows droplet/nuclear area B-score, replicate 1 = -0.733; droplet/nuclear area B-score, replicate 2 = -0.261.
AstC-R1 (GeneID 40020) gave droplet/nuclear area B-score, replicate 1 = -1.79; droplet/nuclear area B-score, replicate 2 = 0.852.
CG3939 (GeneID 31295) showed droplet/nuclear area B-score, replicate 1 = -0.793; droplet/nuclear area B-score, replicate 2 = -1.22.
After knock-down of Usp8 (GeneID 42509), the record shows droplet/nuclear area B-score, replicate 1 = -0.663; droplet/nuclear area B-score, replicate 2 = -0.315.
Depletion of CG11474 (GeneID 37514) gave: droplet/nuclear area B-score, replicate 1 = 0.0141; droplet/nuclear area B-score, replicate 2 = -0.843.
CG7881 (GeneID 35521) gave droplet/nuclear area B-score, replicate 1 = 0.248; droplet/nuclear area B-score, replicate 2 = 0.262.
CG10859 (GeneID 34756) scored droplet/nuclear area B-score, replicate 1 = -2.29; droplet/nuclear area B-score, replicate 2 = -0.83.
Knock-down of Fhos (GeneID 39004) #1 resulted in: droplet/nuclear area B-score, replicate 1 = 0.0048; droplet/nuclear area B-score, replicate 2 = 0.109.
Knock-down of Fhos (GeneID 39004) #2 came out at: droplet/nuclear area B-score, replicate 1 = -1.14; droplet/nuclear area B-score, replicate 2 = -0.14.
Depletion of Fhos (GeneID 39004) #3 resulted in: droplet/nuclear area B-score, replicate 1 = 1.32; droplet/nuclear area B-score, replicate 2 = 1.41.
After knock-down of Fhos (GeneID 39004) #4, the record shows droplet/nuclear area B-score, replicate 1 = 0.823; droplet/nuclear area B-score, replicate 2 = 2.63.
For CG9072 (GeneID 32443) the deposit lists droplet/nuclear area B-score, replicate 1 = 0.0748; droplet/nuclear area B-score, replicate 2 = -0.68.
After knock-down of CG16781 (GeneID 31315), the record shows droplet/nuclear area B-score, replicate 1 = -1.77; droplet/nuclear area B-score, replicate 2 = -1.72.
piwi (GeneID 34521) scored droplet/nuclear area B-score, replicate 1 = -2.22; droplet/nuclear area B-score, replicate 2 = -0.789.
With knock-down of Alg3 (GeneID 37754), the record shows droplet/nuclear area B-score, replicate 1 = 0.215; droplet/nuclear area B-score, replicate 2 = -1.94.
After knock-down of Eaat1 (GeneID 34251), the screen gave droplet/nuclear area B-score, replicate 1 = 0.338; droplet/nuclear area B-score, replicate 2 = 0.0673.
WRNexo (GeneID 42208) showed droplet/nuclear area B-score, replicate 1 = -0.809; droplet/nuclear area B-score, replicate 2 = 0.91.
After knock-down of CG11141 (GeneID 35672) the results were droplet/nuclear area B-score, replicate 1 = 0.81; droplet/nuclear area B-score, replicate 2 = 0.173.
RtGEF (GeneID 35306) #1 scored droplet/nuclear area B-score, replicate 1 = 0.871; droplet/nuclear area B-score, replicate 2 = -1.54.
RtGEF (GeneID 35306) #2 showed droplet/nuclear area B-score, replicate 1 = 0.341; droplet/nuclear area B-score, replicate 2 = 0.335.
After knock-down of slp1 (GeneID 33607) the results were droplet/nuclear area B-score, replicate 1 = 0.75; droplet/nuclear area B-score, replicate 2 = 0.162.
Silencing of CG8907 (GeneID 42050) gave: droplet/nuclear area B-score, replicate 1 = 5.36; droplet/nuclear area B-score, replicate 2 = 0.229.
After knock-down of CG7366 (GeneID 38918) the results were droplet/nuclear area B-score, replicate 1 = 0.0223; droplet/nuclear area B-score, replicate 2 = -0.785.
Silencing of mRpS35 (GeneID 38345) gave: droplet/nuclear area B-score, replicate 1 = 0.245; droplet/nuclear area B-score, replicate 2 = 5.08.
5-HT1B (GeneID 37191) #1 scored droplet/nuclear area B-score, replicate 1 = -2.71; droplet/nuclear area B-score, replicate 2 = 2.61.
Silencing of 5-HT1B (GeneID 37191) #2 resulted in: droplet/nuclear area B-score, replicate 1 = -2.08; droplet/nuclear area B-score, replicate 2 = -2.47.
Against ACXC (GeneID 34689) the deposit lists droplet/nuclear area B-score, replicate 1 = 0.0947; droplet/nuclear area B-score, replicate 2 = -0.116.
With knock-down of Sox15 (GeneID 36575), the screen gave droplet/nuclear area B-score, replicate 1 = 0.875; droplet/nuclear area B-score, replicate 2 = -0.0757.
CG14628 (GeneID 31057) scored droplet/nuclear area B-score, replicate 1 = -0.958; droplet/nuclear area B-score, replicate 2 = -0.662.
After knock-down of CG10183 (GeneID 42782) the results were droplet/nuclear area B-score, replicate 1 = -0.331; droplet/nuclear area B-score, replicate 2 = -2.56.
After knock-down of mus81 (GeneID 31044) #1 the results were droplet/nuclear area B-score, replicate 1 = 0.246; droplet/nuclear area B-score, replicate 2 = 1.15.
mus81 (GeneID 31044) #2 scored droplet/nuclear area B-score, replicate 1 = -0.849; droplet/nuclear area B-score, replicate 2 = 1.42.
CG13581 (GeneID 37911) showed droplet/nuclear area B-score, replicate 1 = -0.21; droplet/nuclear area B-score, replicate 2 = -0.808.
CG6511 (GeneID 38997) showed droplet/nuclear area B-score, replicate 1 = 0.843; droplet/nuclear area B-score, replicate 2 = -0.99.
After knock-down of CG32112 (GeneID 317860), the record shows droplet/nuclear area B-score, replicate 1 = -1.72; droplet/nuclear area B-score, replicate 2 = -1.94.
After knock-down of crim (GeneID 39321) the results were droplet/nuclear area B-score, replicate 1 = -1.76; droplet/nuclear area B-score, replicate 2 = 3.9.
Silencing of msn (GeneID 44030) #1 gave: droplet/nuclear area B-score, replicate 1 = 0.648; droplet/nuclear area B-score, replicate 2 = 1.15.
msn (GeneID 44030) #2 scored droplet/nuclear area B-score, replicate 1 = -0.396; droplet/nuclear area B-score, replicate 2 = -0.927.
Silencing of nyo (GeneID 43716) #1 gave: droplet/nuclear area B-score, replicate 1 = 0.192; droplet/nuclear area B-score, replicate 2 = -0.617.
Against nyo (GeneID 43716) #2 the deposit lists droplet/nuclear area B-score, replicate 1 = -0.429; droplet/nuclear area B-score, replicate 2 = -0.718.

Copied from the listing (6 entries):
Usp8 (GeneID 42509): droplet/nuclear area B-score, replicate 1 = -0.663; droplet/nuclear area B-score, replicate 2 = -0.315
CG11474 (GeneID 37514): droplet/nuclear area B-score, replicate 1 = 0.0141; droplet/nuclear area B-score, replicate 2 = -0.843
CG7881 (GeneID 35521): droplet/nuclear area B-score, replicate 1 = 0.248; droplet/nuclear area B-score, replicate 2 = 0.262
CG10859 (GeneID 34756): droplet/nuclear area B-score, replicate 1 = -2.29; droplet/nuclear area B-score, replicate 2 = -0.83
Fhos (GeneID 39004) #1: droplet/nuclear area B-score, replicate 1 = 0.0048; droplet/nuclear area B-score, replicate 2 = 0.109
Fhos (GeneID 39004) #2: droplet/nuclear area B-score, replicate 1 = -1.14; droplet/nuclear area B-score, replicate 2 = -0.14
